## Results of single-concentration screens

By UniProt entry, the sequences of proteins in these tests, tags left out. Residues count along the entry.
UniProt A4I591, 1-473: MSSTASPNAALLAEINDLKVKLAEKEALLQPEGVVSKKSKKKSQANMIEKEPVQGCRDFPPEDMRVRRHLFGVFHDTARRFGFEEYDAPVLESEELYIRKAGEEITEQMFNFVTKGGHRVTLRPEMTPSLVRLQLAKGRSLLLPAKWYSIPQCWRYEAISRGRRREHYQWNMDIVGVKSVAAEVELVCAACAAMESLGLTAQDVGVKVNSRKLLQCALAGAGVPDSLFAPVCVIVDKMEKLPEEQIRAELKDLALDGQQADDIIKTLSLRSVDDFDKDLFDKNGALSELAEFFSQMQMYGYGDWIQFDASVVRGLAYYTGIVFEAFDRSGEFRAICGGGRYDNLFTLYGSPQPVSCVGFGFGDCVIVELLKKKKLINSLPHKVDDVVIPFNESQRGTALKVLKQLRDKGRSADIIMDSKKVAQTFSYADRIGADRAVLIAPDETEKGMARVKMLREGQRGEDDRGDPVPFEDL

Data taken from ChEMBL document CHEMBL3988442, “University of Dundee, Small-Polar-MMV Screening Library” (2021).

Toxoplasma: 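Assay of Toxoplasma gondii numbers, read through their beta-galactosidase reporter with a colour substrate. Concentration: 10 µM. Higher reads as fewer parasites (inferred from which compounds were picked for retests). Of about 67,000 compounds tested this way, about 260 (0.38%) reached 50% or more in at least one test.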
LiHisRS: 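Histidine-tRNA ligase, Leishmania infantum (UniProt A4I591). Enzyme assay of histidyl-tRNA synthetase; the read-out is not stated. Concentration: 30 µM. Direction is inferred from retests: higher values go with stronger inhibition. The assay is labelled LdHisRS but filed under L. infantum. Of about 69,000 compounds tested this way, about 410 (0.6%) reached 50% or more in at least one test.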

Each number is a percent effect as filed. How 0% and 100% were set is not recorded. Most values in the screen are low, and negative values occur. This is an unselected part of the compounds tested. A dash means the value is not listed here; it may have been measured.

For CC(=O)N1CCC2(C1)c1ccccc1S(=O)(=O)N2C (centres unmarked) the result was Toxoplasma: 15.42%; LiHisRS: 7.547%.
For CCc1ccc(O)c(C(=O)N2CCN(CC(=O)N3CCCCC3)CC2)c1 the result was Toxoplasma: -0.7692%; LiHisRS: 2.667%.
For [H][C@@]12CS(=O)(=O)C[C@]1([H])N(C(=O)c1snnc1C)CCN2C(=O)C1CCC1 the result was Toxoplasma: -8.099%.
For Cc1ccc(F)c(NS(=O)(=O)c2cc(C(=O)O)oc2C)c1 the result was Toxoplasma: -11.81%; LiHisRS: 5.217%.
For O=C(O)C(F)(F)F.O=c1cc(Cn2cncn2)nc2n1CCCN(Cc1ccc(F)cc1)C2 the result was Toxoplasma: 0.0575%.
For COc1nc(N2CCC(CC(N)=O)CC2)ncc1Br the result was Toxoplasma: 6.998%; LiHisRS: 15%.
For CCCC(=O)N1CCC(C(=O)NCCN2CCC(C)CC2)CC1 the result was Toxoplasma: -1.896%; LiHisRS: 15.07%.
For CCCN(CC1CC1)C(=O)Nc1ccc(N2CCSCC2)cc1C the result was Toxoplasma: 5.316%; LiHisRS: 16.88%.
For C[C@]1(O)CCN(Cc2ncccc2F)C[C@@H]1Oc1ccccc1 the result was Toxoplasma: -32.24%; LiHisRS: 10.34%.
For Cc1ccc(CN(C)C(=O)c2cc3c(c(S(N)(=O)=O)c2)CCC3)o1 the result was Toxoplasma: 3.192%; LiHisRS: 5.263%.
For COCC(C)N(Cc1ccccc1OC)C(=O)c1cc(C)[nH]c(=O)c1 (centres unmarked) the result was Toxoplasma: 2.134%; LiHisRS: 14.75%.
For CCN1CCOCC12CCN(C(=O)Cc1ccccc1)CC2.O=C(O)C(F)(F)F the result was Toxoplasma: 4.176%.
For CC(CNC(=O)c1ccncc1F)Oc1ccc(F)cc1 (centres unmarked) the result was Toxoplasma: 12.62%; LiHisRS: 5.31%.
For CCOc1cc(CN(C)CC(=O)O)ccc1OC(F)F.Cl the result was Toxoplasma: 13.28%.
For Cn1cc(NC(=O)c2cc3c(s2)CCCC3)cn1 the result was Toxoplasma: 16.64%; LiHisRS: 35.4%.
For CC(CS(C)(=O)=O)N(C(=O)Nc1cc(F)ccc1Cl)C1CC1 (centres unmarked) the result was Toxoplasma: -3.262%; LiHisRS: 7.895%.
For CC(=O)N1CCn2c(-c3cccc(F)c3)cnc2C12CCNCC2 the result was LiHisRS: 18%.
For CCN(CC)C(=O)C1CCC2(CCNCC2)O1.Cl (centres unmarked) the result was Toxoplasma: -5.423%.
For CCCc1nc(C)c(CN2CC3(CCOC3)CCC2=O)s1 (centres unmarked) the result was Toxoplasma: -0.5408%; LiHisRS: 18.33%.
For CCOc1ncccc1CNC(=O)NCCNC(=O)c1ccco1 the result was Toxoplasma: -10.03%; LiHisRS: 8.621%.
For CN(C)C(=O)NC1COC2(CCN(Cc3ccc(Cl)c(F)c3)CC2)C1.O=C(O)C(F)(F)F (centres unmarked) the result was Toxoplasma: 6.599%.
For CN1CCN(C2CCN(Cc3nnc(C(C)(C)C)o3)CC2)C1=O the result was Toxoplasma: 2.742%; LiHisRS: 6.195%.
For COc1ccccc1OC1(C(=O)O)CCN(c2ncnc(C)c2C)CC1 the result was Toxoplasma: -1.515%; LiHisRS: 11.2%.
For COc1cccc(CN2CCCC(Nc3cccc(F)c3)C2)c1O (centres unmarked) the result was Toxoplasma: 0.1595%; LiHisRS: 20.75%.
For O=C(O)C(F)(F)F.[H][C@]12CCN(c3ccc(C)nn3)[C@@]1([H])CCC(=O)N2CCN1CCOCC1 the result was Toxoplasma: -2.287%.
For c1cc(CN2CCO[C@H]3[C@H](OCC4CCOCC4)CC[C@@H]32)co1 the result was LiHisRS: 0.9091%.
For Cc1ccc(=O)n(CC2(O)CCN(Cc3cnc(N(C)C)nc3)CC2)n1 the result was Toxoplasma: 7.078%; LiHisRS: -42.71%.
For Cn1cccc1-c1cc(C(=O)NCCc2nnc(N)s2)[nH]n1 the result was Toxoplasma: 12.18%; LiHisRS: 21.92%.
For CN(Cc1cc(C2CC2)on1)C(=O)CN1CC(c2ccccc2)CC1=O (centres unmarked) the result was Toxoplasma: 9.431%; LiHisRS: 19.4%.
For Cc1ccc(N2CCO[C@H]3CN(Cc4cccnc4)C[C@H]32)nn1 the result was LiHisRS: 15.6%.
For CC(C)c1n[nH]c(C2CN(C(=O)Cn3ccccc3=O)CCO2)n1 (centres unmarked) the result was Toxoplasma: 14.14%; LiHisRS: 14.04%.
For O=C(O)C(F)(F)F.[H][C@]12OCCC[C@]1([H])N(C(=O)COC)C[C@H]2OCc1cccnc1 the result was Toxoplasma: 1.724%.
For Cc1cc(C)n(CC2CCCCN2CC(=O)N(C)Cc2ccco2)n1 (centres unmarked) the result was Toxoplasma: 0.2316%; LiHisRS: 13.22%.
For O=C(c1ccnc(N2CCOC(c3ccc(Cl)cc3)C2)c1)N1CCCC1 (centres unmarked) the result was Toxoplasma: 5.019%; LiHisRS: 8.333%.
For CCc1nc(C)c(C(=O)N(C)Cc2cnc3ccccn23)o1 the result was Toxoplasma: -4.269%; LiHisRS: 19.67%.
For CC(C)c1cc(C(=O)N(Cc2ccncc2)CC2CCCO2)no1 (centres unmarked) the result was Toxoplasma: 11.84%; LiHisRS: 11.76%.
For CN(C(=O)COc1ccc(F)cc1)[C@@H]1CS(=O)(=O)C[C@H]1O the result was Toxoplasma: 3.436%; LiHisRS: 17.81%.
For CCN1CCCCC1C(=O)Nc1cccc(-c2nnc[nH]2)c1 (centres unmarked) the result was Toxoplasma: -3.182%; LiHisRS: 13.51%.

The first 5 entries again:

| structure | Toxoplasma | LiHisRS |
|---|---|---|
| `CC(=O)N1CCC2(C1)c1ccccc1S(=O)(=O)N2C` (centres unmarked) | 15.42% | 7.547% |
| `CCc1ccc(O)c(C(=O)N2CCN(CC(=O)N3CCCCC3)CC2)c1` | -0.7692% | 2.667% |
| `[H][C@@]12CS(=O)(=O)C[C@]1([H])N(C(=O)c1snnc1C)CCN2C(=O)C1CCC1` | -8.099% | - |
| `Cc1ccc(F)c(NS(=O)(=O)c2cc(C(=O)O)oc2C)c1` | -11.81% | 5.217% |
| `O=C(O)C(F)(F)F.O=c1cc(Cn2cncn2)nc2n1CCCN(Cc1ccc(F)cc1)C2` | 0.0575% | - |